{"sequences": {"note": "The chains behind the UniProt entries cited, without tags or fusion partners. Residues count along the entry.", "UniProt O15118, residues 371-621": "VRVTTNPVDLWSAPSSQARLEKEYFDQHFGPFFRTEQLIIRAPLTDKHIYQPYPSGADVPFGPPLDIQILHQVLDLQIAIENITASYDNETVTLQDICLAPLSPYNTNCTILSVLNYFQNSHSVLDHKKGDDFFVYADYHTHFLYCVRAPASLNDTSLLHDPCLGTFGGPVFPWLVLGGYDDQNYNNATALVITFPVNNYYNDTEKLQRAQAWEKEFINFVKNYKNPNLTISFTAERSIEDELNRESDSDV"}, "source": "paper PMC9903137", "target": "Human Niemann–Pick C1 protein luminal domain C (NPC1-C), nonglycosylated, residues 371–621 (human) (UniProt O15118)", "assay": "SEC; Superdex 200 16/60; SEC buffer 20 mM MES pH 5.5, 100 mM NaCl; refolded His8-tagged NPC1-C alone; both purified", "note": "No constants are given. Whether binding was seen depends on the method and setting.", "data": [{"substance": "Human Niemann–Pick C1 protein luminal domain C (NPC1-C), nonglycosylated, residues 371–621 (from UniProt O15118 371-621) (domain or fragment)", "values": [{"measurement": "binding", "value": "no binding"}]}]}
